Some of these results come from one statement about several compounds together.
Experiment: In vitro drug release from PEG-b-PLA micelles (dialysis method)
Assay type: physicochemical
Procedure: SDMs or MDMs were prepared and characterized as described above. Post micelle preparation each sample was diluted with DD H2O, to yield about 0.10 mg/mL of each drug. A volume of 2.5 mL of the prepared sample was loaded into a 3 mL Slide-A-Lyzer® (Thermo Scientific Inc.) dialysis cassette with a MWCO of 20,000 g/mol. Four cassettes were used in each experiment. The cassettes were placed in 2.0 L of buffer which was changed every 3 hours to ensure sink conditions for drug(s) and polymer. A sample of 100 μL was drawn from each cassette at various sampling time intervals and then replaced with 100 μL of fresh buffer. […] The amount of drug(s) in each sample was quantified by HPLC as described above.
Statistical analysis was performed using one-way ANOVA at 5% significance level combined with Tukey's Multiple Comparison Test or t-test at 5% significance level. Curve-fitting analysis using one phase exponential association was used to calculate the half-life (t1/2) of drug in in vitro drug release experiments. Both analyses were performed using GraphPad Prism version 5.00 for Windows, Graph-Pad Software, San Diego Calif. USA, www.graphpad.com.
SDMs or MDMs were prepared and characterized as described above. Post-micelle preparation, each sample was diluted with DD H2O, to yield samples of about 0.10 mg/mL of each drug. […] The amount of drug(s) in each sample was quantified by reverse phase HPLC.

Structure (SMILES): CC(=O)O[C@@]12CO[C@@H]1C[C@H](O)[C@@]1(C)C(=O)[C@H](O)C3=C(C)[C@@H](OC(=O)[C@H](O)[C@@H](NC(=O)OC(C)(C)C)c4ccccc4)C[C@@](O)([C@@H](OC(=O)c4ccccc4)[C@H]21)C3(C)C [Docetaxel]
- drug released in 9 hours (release of DCTX): over 90%

Structure (SMILES): COc1cc([C@@H]2c3cc4c(cc3[C@@H](O[C@@H]3O[C@@H]5CO[C@@H](C)O[C@H]5[C@H](O)[C@H]3O)[C@H]3COC(=O)[C@H]23)OCO4)cc(OC)c1O [Etoposide]
- drug released in 6 hours (release of ETO): over 90%
